{"source": "PubChem BioAssay AID504834", "about": "(National Center for Advancing Translational Sciences (NCATS), 2011)", "note": "The campaign covered roughly 320,000 compounds. About 22,000 (6.9%) were called active. The inconclusive results got no clear call from the source; some entries with a clear call stand among them for comparison. The call rests on the fitted dose curve; in most records, active means well fitted inhibition curve with a large enough effect; inconclusive means small, poorly fitted or top-dose-only effect, or another doubt; inactive means no such curve, though single readings can be large or run the other way. Potencies of inconclusive entries are doubtful fits and often do not repeat. Potency means the concentration at half of the fitted maximal effect.", "data": [{"assay": "Primary qHTS for delayed death inhibitors of the malarial parasite plastid, 96 hour incubation", "settings": "P. falciparum luciferase reporter growth; series mostly up to 28.7 µM", "outline": "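Parasite growth measured via integrated firefly luciferase reporter in P. falciparum. Infected erythrocytes at 2% hematocrit, 0.05% parasitemia final were treated 96 hours at 37 C under 5% CO2, and luminescence was read.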", "values": [{"smiles": "CC1C(=O)CC(c2ccccc2)NC1c1ccccc1", "note": "(centres undefined)", "Potency": "inactive"}, {"smiles": "Nc1ccccc1Nc1cc(-c2ccccc2)[nH]n1", "Potency": "inconclusive: 16.5 µM [inhibitor, single point]"}, {"smiles": "CC(C)(C)NC(=O)NC(=O)CSc1ccc(S(=O)(=O)N2CCCCC2)cn1", "Potency": "inconclusive: 13.1 µM [inhibitor, single point]"}, {"smiles": "Cc1ccccc1NCCC(=O)Nc1ccc(Cl)cc1", "Potency": "inactive"}, {"smiles": "COc1ccc(/C=N/n2cnc3c([nH]c4ccccc43)c2=O)cc1COc1ccccn1", "Potency": "inconclusive: 10.4 µM [inhibitor, single point]"}, {"smiles": "Oc1ccc(/C=N/n2cc(-c3ccccc3)[nH]c2=S)cc1", "Potency": "inconclusive: 18.5 µM [inhibitor, single point]"}, {"smiles": "CCOc1cc(/C=N/NC(=O)c2ccncc2)ccc1OC(=O)c1ccc([N+](=O)[O-])cc1", "Potency": "inactive"}, {"smiles": "COc1ccc(N(CC(=O)NCc2ccccc2OC)S(=O)(=O)c2c(C)nn(C)c2C)cc1", "Potency": "inactive"}, {"smiles": "O=C(O)c1cccc(NC(=S)N/N=C/c2cccnc2)c1", "Potency": "inconclusive: 0.0329 µM [inhibitor, full curve, poor fit]"}, {"smiles": "CCOC(=O)Cn1c(=O)oc2cc(S(=O)(=O)NCC3CCCO3)ccc21", "note": "(centres undefined)", "Potency": "inconclusive: 13.1 µM [inhibitor, partial curve]"}, {"smiles": "Cc1cc(N2CCN(Cc3cn(C)nc3-c3cccc(Cl)c3)CC2)cc(C)n1", "Potency": "inconclusive: 11.7 µM [inhibitor, single point]"}, {"smiles": "Cc1ccc2nc(SCc3nc4ccccc4c(=O)[nH]3)[nH]c2c1", "Potency": "inconclusive: 0.0037 µM [inhibitor, partial curve, poor fit]"}, {"smiles": "O=C(COC(=O)c1ccncc1)c1ccc(Br)cc1", "Potency": "inactive"}, {"smiles": "O=C(CN(C(=O)c1csnn1)c1cccc2c1CCCC2)NCc1ccccc1", "Potency": "inactive"}, {"smiles": "COc1ccc(/C=C/C(=O)NCCc2c[nH]c3ccccc23)cc1OC", "Potency": "active: 14.7 µM"}, {"smiles": "Cn1c(=O)c2[nH]c(CN(Cc3ccccc3)Cc3ccccc3)nc2n(C)c1=O", "Potency": "inactive"}, {"smiles": "Cc1c(NC(=O)CSc2nnnn2-c2ccc(F)cc2)c(=O)n(-c2ccccc2)n1C", "Potency": "inconclusive: 18.5 µM [inhibitor, single point]"}, {"smiles": "CC(C)[C@H](CO)N(Cc1cccc(F)c1)c1nc(Nc2cccc(Cl)c2)c2ncn(C(C)C)c2n1", "Potency": "inconclusive: 10.4 µM [inhibitor, single point]"}, {"smiles": "CN1CCNC(=O)C1CC(=O)NCCc1ccccc1F", "note": "(centres undefined)", "Potency": "active: 13.1 µM"}, {"smiles": "Cc1cc(N)c(NC2=CC(=O)CC(C)(C)C2)cc1C", "Potency": "active: 10.4 µM"}, {"smiles": "CCOC(=O)C1=C(C)OC(N)=C(C#N)C1c1cc2ccccc2nc1N1CCCCC1", "note": "(centres undefined)", "Potency": "active: 1.31 µM"}, {"smiles": "CC1(C)[C@@H](OC(=O)CCC(=O)O)CC[C@@]2(C)[C@H]1CC[C@@]1(C)[C@H]2C(=O)C=C2[C@H]3C[C@](C)(C(=O)O)CC[C@]3(C)CC[C@@]21C", "Potency": "inactive"}, {"smiles": "Cc1ccc([N+](=O)[O-])c2c1C(N1CCCC1)C(C)(C)O2", "note": "(centres undefined)", "Potency": "inconclusive: 0.0928 µM [inhibitor, full curve, poor fit]"}, {"smiles": "Oc1ccc(CNCC2COc3ccccc3O2)cc1", "note": "(centres undefined)", "Potency": "inconclusive: 14.7 µM [inhibitor, single point]"}, {"smiles": "CCOC(=O)C(C)Sc1ccc2nnc(CCNS(=O)(=O)c3ccccc3)n2n1", "note": "(centres undefined)", "Potency": "inconclusive: 16.5 µM [inhibitor, single point]"}, {"smiles": "C/C(=N\\NC(=O)CNc1ccccc1Cl)C(C)(C)C", "Potency": "inconclusive: 0.104 µM [inhibitor, full curve, poor fit]"}, {"smiles": "CCOC(=O)c1ccccc1NC(=O)COC(=O)C1CCN(S(=O)(=O)c2ccccc2C(=O)OC)CC1", "Potency": "inconclusive: 9.28 µM [inhibitor, single point]"}, {"smiles": "CCCCn1c(SCC(=O)Nc2nnc(C)s2)nnc1-c1ccncc1", "Potency": "inconclusive: 18.5 µM [inhibitor, single point]"}, {"smiles": "Fc1ccc(CSc2nc3ccccc3[nH]2)c2ccccc12", "Potency": "inconclusive: 18.5 µM [inhibitor, single point]"}, {"smiles": "CN(C(=O)c1ccccc1Cl)c1ccccc1C(=O)NCCc1ccccc1", "Potency": "inactive"}, {"smiles": "CCOC(=O)c1cc(C(=O)Nc2sc3c(c2C#N)CCCC3)nn1C", "Potency": "inactive"}, {"smiles": "COc1ccc(-n2c(-c3ccc(Br)cc3)c[n+]3c2SC(C)C3)cc1", "note": "(centres undefined)", "Potency": "inconclusive: 0.0026 µM [inhibitor, full curve, poor fit]"}, {"smiles": "Clc1ccc(CO/N=C/c2c(-c3ccccc3)nc3n2CCS3)c(Cl)c1", "Potency": "inconclusive: 18.5 µM [inhibitor, single point]"}, {"smiles": "Cc1nonc1NC(=O)CSc1nc(C23CC4CC(CC(C4)C2)C3)nc2ccccc12", "Potency": "inconclusive: 0.0928 µM [inhibitor, full curve, poor fit]"}, {"smiles": "CC1CC(C)(C)NC(=S)N1CC(=O)N1CCN(Cc2ccccc2)CC1", "note": "(centres undefined)", "Potency": "inconclusive: 0.233 µM [inhibitor, partial curve, poor fit]"}, {"smiles": "COc1ccc(/C=N/NC(=O)c2nc(Cl)c(Cl)c(N)c2Cl)cc1COc1ccc(F)cc1F", "Potency": "inactive"}, {"smiles": "CC(C)(C)c1ccc(OCCC(=O)NCCc2ccc(S(N)(=O)=O)cc2)cc1", "Potency": "inactive"}, {"smiles": "COc1ccc(C(=O)NCC(=O)N/N=C/c2cn(C)c3ccccc23)cc1OC", "Potency": "inconclusive: 13.1 µM [inhibitor, partial curve]"}, {"smiles": "O=C(NC1CCCC1)c1cccc(Cl)c1", "Potency": "inactive"}, {"smiles": "C=CCn1c(SCC(=O)Nc2ncc(Cc3ccc(Br)cc3)s2)nnc1-c1ccncc1", "Potency": "inconclusive: 2.94 µM [inhibitor, full curve, poor fit]"}, {"smiles": "Cc1cccc(C(=O)Nc2cccc(C(=O)NC3CCCC3)c2)c1", "Potency": "inconclusive: 16.5 µM [inhibitor, single point]"}, {"smiles": "O=C(NC1CC1)C1=C[C@@H](c2c[nH]c3ccccc23)C[C@@H](OCCCCO)O1", "Potency": "inconclusive: 14.7 µM [inhibitor, partial curve, poor fit]"}, {"smiles": "Cc1ccc(S(=O)(=O)N(CC(=O)NCC2CCCO2)c2cccc([N+](=O)[O-])c2)cc1", "note": "(centres undefined)", "Potency": "inconclusive: 18.5 µM [inhibitor, single point]"}, {"smiles": "O=C(COC(=O)CC12CC3CC(CC(C3)C1)C2)Nc1cccnc1Cl", "Potency": "inactive"}]}]}
